Laboratory results as given in US5824528.

Sequences of proteins named here, by UniProt entry; tags and fusion partners are left off. A change or cut given only in a name is not applied to a line headed by its entry.
UniProt P00573: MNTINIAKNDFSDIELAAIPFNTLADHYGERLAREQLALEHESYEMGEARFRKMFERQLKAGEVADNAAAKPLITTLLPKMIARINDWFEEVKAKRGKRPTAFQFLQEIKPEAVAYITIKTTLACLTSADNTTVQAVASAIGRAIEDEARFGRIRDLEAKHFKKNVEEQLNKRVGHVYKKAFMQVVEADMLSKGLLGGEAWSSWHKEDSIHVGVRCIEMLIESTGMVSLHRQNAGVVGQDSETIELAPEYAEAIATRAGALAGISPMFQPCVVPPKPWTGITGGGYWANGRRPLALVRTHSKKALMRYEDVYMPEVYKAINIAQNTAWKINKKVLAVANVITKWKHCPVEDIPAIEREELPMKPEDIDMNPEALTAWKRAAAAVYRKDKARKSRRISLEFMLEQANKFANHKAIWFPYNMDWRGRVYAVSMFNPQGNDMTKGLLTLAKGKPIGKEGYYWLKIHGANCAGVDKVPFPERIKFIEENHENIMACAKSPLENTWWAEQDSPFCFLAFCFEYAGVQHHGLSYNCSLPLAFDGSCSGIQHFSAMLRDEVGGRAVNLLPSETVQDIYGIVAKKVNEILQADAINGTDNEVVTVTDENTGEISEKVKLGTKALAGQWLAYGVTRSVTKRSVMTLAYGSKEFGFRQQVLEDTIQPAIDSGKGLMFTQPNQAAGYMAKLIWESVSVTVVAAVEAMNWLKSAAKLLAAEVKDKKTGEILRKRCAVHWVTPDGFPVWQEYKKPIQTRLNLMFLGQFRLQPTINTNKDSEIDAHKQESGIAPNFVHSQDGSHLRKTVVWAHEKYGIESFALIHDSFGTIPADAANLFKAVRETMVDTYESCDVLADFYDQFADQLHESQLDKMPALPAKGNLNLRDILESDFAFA
UniProt P03023, whole entry: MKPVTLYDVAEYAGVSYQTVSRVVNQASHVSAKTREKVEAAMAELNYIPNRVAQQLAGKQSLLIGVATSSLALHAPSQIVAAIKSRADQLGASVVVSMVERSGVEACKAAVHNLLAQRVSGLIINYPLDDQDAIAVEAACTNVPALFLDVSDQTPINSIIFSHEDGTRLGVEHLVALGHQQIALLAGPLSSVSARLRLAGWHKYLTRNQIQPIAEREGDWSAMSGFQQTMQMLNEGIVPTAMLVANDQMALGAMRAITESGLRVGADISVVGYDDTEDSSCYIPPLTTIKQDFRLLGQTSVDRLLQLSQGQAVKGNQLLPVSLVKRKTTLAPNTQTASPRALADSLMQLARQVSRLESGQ

What was measured:
[1] = biological target: T7 RNA polymerase (bacteriophage T7) (UniProt P00573); experiment: activity in cells; conditions: protein in cells, protein details: expressed from phage DE2/DE3 or DE3 lysogen, only the site is given
[2] = biological target: T7 RNA polymerase (bacteriophage T7) (UniProt P00573); experiment: activity assay; conditions: runoff transcription, 100 nM T7 RNAP, 37 C, purified recombinant protein
[3] = biological target: Lac repressor (LacI) (UniProt P03023); experiment: inhibition of the protein; conditions: purified recombinant protein, protein details: purified, from K. Matthews, Rice University
[4] = biological target: Lac repressor (LacI) (UniProt P03023); experiment: activity in cells; conditions: protein in cells, protein details: expressed from plasmid lacI gene, only the site is given
[5] = gene 10 expression, little if any increase in lysozyme sensitivity, variant of pET-7.1 promoter

## AGATCTCGATCCCGCGAAATTAATACGACTCACTATAGGCCTGGATCC (double strand) [pET-7 promoter (no operator)]
[1]; DE2/DE3 plating <0.01, gene 10 expression sensitive to T7 lysozyme
  functional effect: active
[2]; only the site is given
  functional effect: active

## TAATACGACTCACTATAGGAGAAGGCCTGGATCC (double strand) [pET-7.3 promoter]
[1]; [5]
  functional effect: active

## TAATACGACTCACTATAGGGAGACCACAACGGTTTCCCTCTAGCGGGATCC (double strand) [T7 phi10 promoter]
[1]; beta-galactosidase 44,000 at 2 h with IPTG vs 140 for host
  functional effect: active

## TAATACGACTCACTATAGGGAGAGGGGAATTGTGAGCGGATAACAATTCCCCTGGATCC (double strand) [T7lac21 promoter (operator at +21)]
[3]; 140 nM repressor, less well repressed than T7lacL in vitro
  activity on this sequence: less active
[4]; pT7lac21-1: DE2 <0.01 without IPTG, less well repressed than T7lacL in vivo and in vitro
  activity on this sequence: less active
[2]
  functional effect: active

## TAATACGACTCACTATAGGGGAAGGCCTGGATCC (double strand) [pET-7.2 promoter]
[1]; [5]
  functional effect: active

## TAATACGACTCACTATAGGGGAATTGTGAGCGGATAACAATTCCCCTGGATCC (double strand) [T7lac promoter (operator at +15, rightward)]
[3]; runoff transcription by T7 RNAP repressed, 140 nM repressor, IPTG 1 mM control, 37 C
  activity on this sequence: active
[4]; beta-galactosidase from pT7lac-1b: 200 uninduced vs 30,000 with IPTG at 2 h
  activity on this sequence: active
[1]; pT7lac-1b 30,000 at 2 h with IPTG, more sensitive to T7 lysozyme than phi10
  functional effect: active
[2]
  functional effect: active

## TAATACGACTCACTATAGGGGAATTGTTATCCGCTCACAATTCCCCTGGATCC (double strand) [T7lacL promoter (operator at +15, leftward)]
[3]; runoff transcription by T7 RNAP repressed, 70 nM repressor, IPTG 1 mM control, 4 mM MgCl2, 37 C
  activity on this sequence: active
[4]; pT7lacL-1/-2: DE2 and DE3 plate normally without IPTG, <0.01 with IPTG
  activity on this sequence: active
[1]; gene 10 expression, sensitive to T7 lysozyme
  functional effect: active
[2]
  functional effect: active

For some of these results: A weaker result is weaker than the reference pair of the same experiment.
